Reference: paper PMC10272187
No constants are given. Whether binding was seen depends on the method and setting. In cells and extracts the contact can be indirect. Here binding means that the protein was enriched with, or labelled near, the bait; the list need not be complete. For some of these results: A no says only that the protein was not detected with the bait.

By UniProt entry, the sequences of proteins in these tests, tags left out.
UniProt Q8IZP0: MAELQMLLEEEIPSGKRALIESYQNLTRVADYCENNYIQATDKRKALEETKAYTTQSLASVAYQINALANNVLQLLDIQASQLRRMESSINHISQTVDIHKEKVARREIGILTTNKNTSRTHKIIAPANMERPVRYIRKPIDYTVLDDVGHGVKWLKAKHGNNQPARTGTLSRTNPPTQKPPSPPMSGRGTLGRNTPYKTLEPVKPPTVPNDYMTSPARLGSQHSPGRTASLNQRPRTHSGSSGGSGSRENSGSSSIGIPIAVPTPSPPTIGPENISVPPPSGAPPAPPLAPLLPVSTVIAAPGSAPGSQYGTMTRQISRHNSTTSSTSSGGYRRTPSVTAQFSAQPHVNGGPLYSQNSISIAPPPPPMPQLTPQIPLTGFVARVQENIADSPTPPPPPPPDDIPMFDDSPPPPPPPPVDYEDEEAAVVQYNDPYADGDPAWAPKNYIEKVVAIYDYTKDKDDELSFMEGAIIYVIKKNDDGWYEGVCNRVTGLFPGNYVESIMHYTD
UniProt P30153: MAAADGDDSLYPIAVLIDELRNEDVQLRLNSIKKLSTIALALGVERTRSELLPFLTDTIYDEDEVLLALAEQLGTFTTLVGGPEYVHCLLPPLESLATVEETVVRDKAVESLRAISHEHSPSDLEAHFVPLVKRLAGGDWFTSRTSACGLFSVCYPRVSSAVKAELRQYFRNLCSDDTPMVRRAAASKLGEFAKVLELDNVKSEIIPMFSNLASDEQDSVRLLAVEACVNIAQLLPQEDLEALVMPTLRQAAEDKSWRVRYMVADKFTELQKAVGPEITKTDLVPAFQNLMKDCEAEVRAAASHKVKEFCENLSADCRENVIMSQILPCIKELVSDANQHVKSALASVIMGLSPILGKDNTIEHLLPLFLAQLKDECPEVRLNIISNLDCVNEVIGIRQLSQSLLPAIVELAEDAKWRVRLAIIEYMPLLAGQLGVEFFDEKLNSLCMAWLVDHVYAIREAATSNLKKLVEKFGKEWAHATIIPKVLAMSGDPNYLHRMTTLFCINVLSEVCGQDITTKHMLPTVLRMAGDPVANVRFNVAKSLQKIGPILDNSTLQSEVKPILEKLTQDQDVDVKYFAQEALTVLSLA
UniProt Q9UQB8: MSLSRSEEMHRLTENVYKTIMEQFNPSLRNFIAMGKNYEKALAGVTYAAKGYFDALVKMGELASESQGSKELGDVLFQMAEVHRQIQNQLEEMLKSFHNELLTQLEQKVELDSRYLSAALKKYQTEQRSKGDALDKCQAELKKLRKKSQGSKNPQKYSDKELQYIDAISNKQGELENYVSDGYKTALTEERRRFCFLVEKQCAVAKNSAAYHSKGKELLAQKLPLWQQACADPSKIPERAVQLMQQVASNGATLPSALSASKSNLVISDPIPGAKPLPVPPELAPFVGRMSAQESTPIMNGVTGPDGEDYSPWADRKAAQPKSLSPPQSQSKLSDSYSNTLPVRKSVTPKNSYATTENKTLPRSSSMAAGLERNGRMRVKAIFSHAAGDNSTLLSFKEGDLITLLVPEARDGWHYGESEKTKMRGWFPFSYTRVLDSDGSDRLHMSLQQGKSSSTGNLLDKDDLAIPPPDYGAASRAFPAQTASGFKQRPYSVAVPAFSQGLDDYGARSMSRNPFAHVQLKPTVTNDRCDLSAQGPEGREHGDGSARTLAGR
UniProt Q6T4R5: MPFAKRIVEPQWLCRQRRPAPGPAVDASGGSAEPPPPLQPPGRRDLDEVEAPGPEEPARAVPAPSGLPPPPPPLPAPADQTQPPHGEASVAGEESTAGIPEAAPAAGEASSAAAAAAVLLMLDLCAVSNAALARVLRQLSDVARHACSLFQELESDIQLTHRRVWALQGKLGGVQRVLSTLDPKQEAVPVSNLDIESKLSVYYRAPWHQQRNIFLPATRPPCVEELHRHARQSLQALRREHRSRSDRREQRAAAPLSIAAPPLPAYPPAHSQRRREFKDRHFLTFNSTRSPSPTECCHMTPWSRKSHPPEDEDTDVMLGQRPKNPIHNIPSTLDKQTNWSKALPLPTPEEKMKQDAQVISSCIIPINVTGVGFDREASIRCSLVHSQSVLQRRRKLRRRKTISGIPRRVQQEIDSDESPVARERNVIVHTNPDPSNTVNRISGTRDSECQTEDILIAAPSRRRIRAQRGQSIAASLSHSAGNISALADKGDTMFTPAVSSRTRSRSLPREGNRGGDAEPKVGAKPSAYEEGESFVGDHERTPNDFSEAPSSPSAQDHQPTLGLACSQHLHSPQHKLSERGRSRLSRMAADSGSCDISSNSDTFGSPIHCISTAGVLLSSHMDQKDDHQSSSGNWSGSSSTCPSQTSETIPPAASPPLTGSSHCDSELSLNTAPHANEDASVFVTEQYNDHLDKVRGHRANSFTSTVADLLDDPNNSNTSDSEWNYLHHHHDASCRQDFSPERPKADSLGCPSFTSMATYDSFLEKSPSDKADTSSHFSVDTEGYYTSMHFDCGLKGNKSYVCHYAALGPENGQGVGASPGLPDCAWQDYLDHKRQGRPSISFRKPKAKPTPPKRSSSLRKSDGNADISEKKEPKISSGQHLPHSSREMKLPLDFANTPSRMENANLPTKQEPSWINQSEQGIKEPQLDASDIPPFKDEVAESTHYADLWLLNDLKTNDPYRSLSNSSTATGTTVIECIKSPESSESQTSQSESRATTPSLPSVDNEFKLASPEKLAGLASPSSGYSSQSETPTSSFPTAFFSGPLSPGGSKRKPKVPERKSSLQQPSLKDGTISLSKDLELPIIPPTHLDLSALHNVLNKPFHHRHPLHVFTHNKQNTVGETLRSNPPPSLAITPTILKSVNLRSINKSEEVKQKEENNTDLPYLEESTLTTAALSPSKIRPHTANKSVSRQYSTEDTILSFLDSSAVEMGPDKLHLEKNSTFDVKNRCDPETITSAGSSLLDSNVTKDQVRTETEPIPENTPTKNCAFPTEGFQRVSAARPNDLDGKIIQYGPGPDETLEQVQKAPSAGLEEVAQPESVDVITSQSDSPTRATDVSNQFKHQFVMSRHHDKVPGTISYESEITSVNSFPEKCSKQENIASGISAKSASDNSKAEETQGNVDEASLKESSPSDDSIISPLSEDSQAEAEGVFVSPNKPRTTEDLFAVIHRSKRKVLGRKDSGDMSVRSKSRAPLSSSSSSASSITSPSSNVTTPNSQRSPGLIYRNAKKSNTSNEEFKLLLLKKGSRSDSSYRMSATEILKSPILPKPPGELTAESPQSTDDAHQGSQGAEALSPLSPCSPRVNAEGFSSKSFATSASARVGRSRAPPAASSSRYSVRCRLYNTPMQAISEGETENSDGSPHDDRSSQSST
UniProt Q92558: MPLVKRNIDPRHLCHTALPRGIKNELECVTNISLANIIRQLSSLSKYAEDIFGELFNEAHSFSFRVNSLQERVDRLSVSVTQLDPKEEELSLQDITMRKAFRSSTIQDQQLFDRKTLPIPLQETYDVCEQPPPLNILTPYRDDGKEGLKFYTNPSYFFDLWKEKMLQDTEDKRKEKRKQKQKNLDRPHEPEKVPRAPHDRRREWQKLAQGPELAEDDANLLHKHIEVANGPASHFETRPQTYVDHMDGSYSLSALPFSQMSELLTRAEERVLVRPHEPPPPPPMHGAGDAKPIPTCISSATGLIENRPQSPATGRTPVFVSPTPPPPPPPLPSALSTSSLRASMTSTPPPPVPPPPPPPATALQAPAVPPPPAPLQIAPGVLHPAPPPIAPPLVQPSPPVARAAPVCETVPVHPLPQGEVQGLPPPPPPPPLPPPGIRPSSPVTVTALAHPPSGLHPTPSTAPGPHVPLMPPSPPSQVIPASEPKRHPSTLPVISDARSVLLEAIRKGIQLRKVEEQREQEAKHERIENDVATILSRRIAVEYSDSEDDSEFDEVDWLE
UniProt Q70E73: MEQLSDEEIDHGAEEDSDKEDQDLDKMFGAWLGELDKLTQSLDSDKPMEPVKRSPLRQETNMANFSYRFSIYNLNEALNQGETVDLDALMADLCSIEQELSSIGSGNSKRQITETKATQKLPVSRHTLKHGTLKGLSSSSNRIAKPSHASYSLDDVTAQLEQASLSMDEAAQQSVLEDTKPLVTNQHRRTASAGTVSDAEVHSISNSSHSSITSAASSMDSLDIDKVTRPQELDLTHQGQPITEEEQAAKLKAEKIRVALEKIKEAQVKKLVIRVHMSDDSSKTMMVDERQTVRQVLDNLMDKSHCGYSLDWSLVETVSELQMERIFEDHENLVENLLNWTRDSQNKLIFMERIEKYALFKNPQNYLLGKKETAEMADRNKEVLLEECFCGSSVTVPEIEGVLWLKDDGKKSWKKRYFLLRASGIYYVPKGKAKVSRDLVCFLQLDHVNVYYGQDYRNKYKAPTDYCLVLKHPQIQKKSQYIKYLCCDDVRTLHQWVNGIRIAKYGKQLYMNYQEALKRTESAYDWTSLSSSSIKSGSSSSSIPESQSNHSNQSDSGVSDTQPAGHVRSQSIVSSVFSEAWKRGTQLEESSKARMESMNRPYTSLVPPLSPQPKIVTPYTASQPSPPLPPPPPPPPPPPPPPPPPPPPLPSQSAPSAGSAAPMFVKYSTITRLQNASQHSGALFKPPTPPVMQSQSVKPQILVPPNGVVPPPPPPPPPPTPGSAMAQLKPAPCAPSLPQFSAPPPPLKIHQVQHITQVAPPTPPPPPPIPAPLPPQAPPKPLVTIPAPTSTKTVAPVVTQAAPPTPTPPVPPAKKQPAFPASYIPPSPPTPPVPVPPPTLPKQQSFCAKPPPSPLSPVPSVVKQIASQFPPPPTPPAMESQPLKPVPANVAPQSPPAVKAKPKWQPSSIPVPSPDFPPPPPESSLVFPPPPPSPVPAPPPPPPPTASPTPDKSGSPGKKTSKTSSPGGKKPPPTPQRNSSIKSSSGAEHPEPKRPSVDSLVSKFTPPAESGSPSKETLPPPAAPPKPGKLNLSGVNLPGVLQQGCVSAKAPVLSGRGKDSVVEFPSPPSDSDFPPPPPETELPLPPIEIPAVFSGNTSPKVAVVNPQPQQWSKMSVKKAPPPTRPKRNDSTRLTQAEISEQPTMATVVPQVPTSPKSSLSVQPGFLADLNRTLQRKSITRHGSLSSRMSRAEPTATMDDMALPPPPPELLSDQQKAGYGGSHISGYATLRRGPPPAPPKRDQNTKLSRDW
UniProt P67775: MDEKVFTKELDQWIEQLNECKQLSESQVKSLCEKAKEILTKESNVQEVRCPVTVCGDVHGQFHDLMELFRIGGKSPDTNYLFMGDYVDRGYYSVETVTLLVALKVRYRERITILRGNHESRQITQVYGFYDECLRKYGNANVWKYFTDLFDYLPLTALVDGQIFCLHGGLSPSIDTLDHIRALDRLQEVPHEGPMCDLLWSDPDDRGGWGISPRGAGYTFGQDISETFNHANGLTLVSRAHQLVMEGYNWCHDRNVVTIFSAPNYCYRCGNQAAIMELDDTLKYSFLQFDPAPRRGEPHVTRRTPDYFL
UniProt P62714: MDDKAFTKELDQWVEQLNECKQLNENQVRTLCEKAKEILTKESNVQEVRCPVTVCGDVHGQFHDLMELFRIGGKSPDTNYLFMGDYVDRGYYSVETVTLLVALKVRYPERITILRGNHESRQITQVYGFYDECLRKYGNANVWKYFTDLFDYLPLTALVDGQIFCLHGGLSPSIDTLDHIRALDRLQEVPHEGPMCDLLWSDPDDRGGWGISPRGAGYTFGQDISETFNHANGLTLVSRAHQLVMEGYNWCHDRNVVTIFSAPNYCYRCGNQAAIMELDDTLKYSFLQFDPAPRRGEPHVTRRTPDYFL
UniProt Q15172: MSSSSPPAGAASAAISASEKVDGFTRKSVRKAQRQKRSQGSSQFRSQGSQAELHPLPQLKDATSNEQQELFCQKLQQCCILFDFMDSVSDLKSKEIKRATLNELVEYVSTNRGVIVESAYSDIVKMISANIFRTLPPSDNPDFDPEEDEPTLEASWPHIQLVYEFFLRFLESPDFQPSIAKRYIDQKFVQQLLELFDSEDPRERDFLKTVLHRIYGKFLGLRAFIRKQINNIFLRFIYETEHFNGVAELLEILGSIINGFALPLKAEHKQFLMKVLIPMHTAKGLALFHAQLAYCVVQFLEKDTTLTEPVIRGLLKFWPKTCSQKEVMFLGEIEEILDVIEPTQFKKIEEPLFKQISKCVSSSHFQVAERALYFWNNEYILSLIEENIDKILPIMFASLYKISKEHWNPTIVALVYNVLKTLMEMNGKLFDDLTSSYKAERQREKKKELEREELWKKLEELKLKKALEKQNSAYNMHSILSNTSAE

Legend:
FLAG-GFP ABI1 = FLAG-GFP ABI1 (UniProt Q8IZP0); assay: affinity purification with mass spectrometry; Tandem affinity purification (FLAG-M2 beads, FLAG peptide elution, then GFP-trap) of FLAG-GFP ABI1 from stable MCF10A parental or RAC1 Q61L cells, treated or not with 100 µM CK666 for 16 h; XB-NP40 lysis buffer, 4 °C; FLAG-GFP as control
FLAG-GFP PPP2R1A = FLAG-GFP PPP2R1A (UniProt P30153); assay: affinity purification with mass spectrometry; Tandem affinity purification (FLAG then GFP) of FLAG-GFP PPP2R1A from stable MCF10A and MDA-MB-231 cells; XB-NP40 lysis buffer, 4 °C; FLAG-GFP as control

| binding (FLAG-GFP ABI1) | binding (FLAG-GFP PPP2R1A) | Substance |
| --- | --- | --- |
| binds |  | IRSp53 (from UniProt Q9UQB8 1-552) |
| binds |  | NHS (from UniProt Q6T4R5 1-1651) |
|  | no binding | WAVE1 (from UniProt Q92558 1-559) |
| binds |  | lamellipodin (from UniProt Q70E73 1-1250) |

Second part, the substance before the results:

| Substance | binding (FLAG-GFP ABI1) | binding (FLAG-GFP PPP2R1A) |
| --- | --- | --- |
| PPP2CA (from UniProt P67775 1-309) (enzyme) | binds |  |
| PPP2CB (from UniProt P62714 1-309) (enzyme) | binds |  |
| PPP2R5A (from UniProt Q15172 1-486) |  | binds |
